Among the data in paper PMC11075218 are binding values, retold here.

Amino acid sequences for entries named in this document (tags omitted).
UniProt O15169: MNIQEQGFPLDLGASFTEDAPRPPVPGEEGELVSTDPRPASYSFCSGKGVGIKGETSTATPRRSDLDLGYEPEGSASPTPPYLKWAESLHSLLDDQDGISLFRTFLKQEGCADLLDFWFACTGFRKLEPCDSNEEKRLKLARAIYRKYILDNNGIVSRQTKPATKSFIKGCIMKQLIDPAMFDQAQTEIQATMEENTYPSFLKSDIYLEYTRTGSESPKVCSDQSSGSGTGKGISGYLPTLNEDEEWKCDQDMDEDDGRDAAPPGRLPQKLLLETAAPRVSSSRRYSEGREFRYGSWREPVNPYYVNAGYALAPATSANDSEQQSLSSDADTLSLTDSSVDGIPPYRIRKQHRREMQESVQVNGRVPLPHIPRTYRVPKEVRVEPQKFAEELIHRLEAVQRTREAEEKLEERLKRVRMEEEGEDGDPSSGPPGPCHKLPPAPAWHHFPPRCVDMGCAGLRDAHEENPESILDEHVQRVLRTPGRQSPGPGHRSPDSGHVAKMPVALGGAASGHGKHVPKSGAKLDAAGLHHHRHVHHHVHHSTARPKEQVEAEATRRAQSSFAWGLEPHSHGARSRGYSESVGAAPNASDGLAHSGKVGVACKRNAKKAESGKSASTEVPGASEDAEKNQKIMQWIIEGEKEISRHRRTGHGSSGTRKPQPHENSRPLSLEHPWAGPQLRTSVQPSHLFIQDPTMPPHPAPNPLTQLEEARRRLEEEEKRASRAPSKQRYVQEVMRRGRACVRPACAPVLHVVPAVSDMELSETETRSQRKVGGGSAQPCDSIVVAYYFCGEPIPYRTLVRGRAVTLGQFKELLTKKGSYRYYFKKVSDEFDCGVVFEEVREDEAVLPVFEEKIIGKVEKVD
UniProt P61088: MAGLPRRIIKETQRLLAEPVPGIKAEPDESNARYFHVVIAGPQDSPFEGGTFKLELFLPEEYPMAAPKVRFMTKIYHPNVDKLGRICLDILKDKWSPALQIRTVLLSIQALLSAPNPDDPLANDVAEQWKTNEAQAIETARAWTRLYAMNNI
UniProt P49841: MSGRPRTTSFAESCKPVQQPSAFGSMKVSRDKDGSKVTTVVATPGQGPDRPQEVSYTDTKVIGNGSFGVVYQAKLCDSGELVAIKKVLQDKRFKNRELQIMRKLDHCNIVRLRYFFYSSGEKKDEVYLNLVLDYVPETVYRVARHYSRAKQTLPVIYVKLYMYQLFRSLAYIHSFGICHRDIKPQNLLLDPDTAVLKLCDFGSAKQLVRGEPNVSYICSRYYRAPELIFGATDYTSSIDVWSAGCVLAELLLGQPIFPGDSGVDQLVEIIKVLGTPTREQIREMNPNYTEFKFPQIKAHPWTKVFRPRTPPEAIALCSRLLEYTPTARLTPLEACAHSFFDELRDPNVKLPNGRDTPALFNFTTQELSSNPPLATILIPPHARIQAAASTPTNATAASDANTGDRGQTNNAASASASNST

No constants are given. Whether binding was seen depends on the method and setting. Binding seen in cells or lysates may run through a third protein. Some entries that bind do so weakly or less than the wild type.

Experiment [1] has as its target Axin1 (human (in lysates of the paper's human cell lines; line not stated)) (UniProt O15169). The experiment is described as follows: co-IP; whole lysates in IP buffer, pre-cleaned with protein A/G-agarose; anti-UBE2N or anti-Axin1 antibody (control IgG) with protein A/G beads at 4 °C overnight; washed five times with IP lysis buffer; Western blot; cell line not stated.

Experiment [2] deals with Ubiquitin-conjugating enzyme E2 N (UBE2N) (human (in lysates of the paper's human cell lines; line not stated)) (UniProt P61088). The experiment is described as above.

For “Ubiquitin-conjugating enzyme E2 N (UBE2N) (from UniProt P61088 1-152)”, the binding entry in experiment [1] is reported as “binds”.
For Axin1 (from UniProt O15169 1-862), in experiment [2], the binding result is “binds”.
Same read-out and setting: with “GSK-3β (from UniProt P49841 1-420) (enzyme)” the entry was “no binding”.
